Data on 1 molecule can be found in publication PMC8113879, “Molecular properties of human guanylate cyclase–activating protein 2 (GCAP2) and its retinal dystrophy–associated variant G157R” (The Journal of Biological Chemistry, 2021).

No constants are given. Whether binding was seen depends on the method and setting.

In the assay the target is nonmyristoylated human guanylate cyclase-activating protein 2 (human) (UniProt Q9UMX6). As to the kind of experiment: condition: only in the absence of Ca2+ (500 uM EGTA + 1 mM Mg2+); ~40 uM protein; SEC; analytical SEC, Superose 12 10/300GL, 20 mM Tris HCl pH 7.5, 150 mM KCl, 1 mM DTT, 500 uM EGTA + 1 mM Mg2+ (no Ca2+), 25 C; ~40 uM protein or 5-80 uM for the titration; apparent KD from a hyperbolic fit of apparent mass against concentration; monomer to dimer; both purified.

B1: nonmyristoylated human guanylate cyclase-activating protein 2 (natural protein, UniProt Q9UMX6 1-200, looked up)
chain: MGQEFSWEEAEAAGEIDVAELQEWYKKFVMECPSGTLFMHEFKRFFKVTDDEEASQYVEGMFRAFDKNGDNTIDFLEYVAALNLVLRGTLEHKLKWTFKIYDKDGNGCIDRLELLNIVEGIYQLKKACRRELQTEQGQLLTPEEVVDRIFLLVDENGDGQLSLNEFVEGARRDKWVMKMLQMDMNPSSWLAQQRRKSAMF
notes: cDNA cloned into pET-11a(+) with NdeI and NheI; No tag is mentioned; also called nmGCAP2; nonmyristoylated GCAP2
For the molecule B1, the binding entry is recorded as “no binding”.
